Results published in patent EP0297435A2, “Aminopropanol derivatives of 3-(3'-hydroxyphenyl)-1-propanone, process for their preparation and medicines containing these compounds” (Helopharm W. Petrik GmbH & Co.KG., priority 1987, dated 1989).

Test: Acute toxicity LD50 in rats, i.v.
Conditions: rat, in vivo, iv; Ratte (i.v.); read-out: LD₅₀
From the text: Die hohe antiarrhythmische Wirksamkeit ist nicht begleitet von einer signifikanten Toxizitätssteigerung im Vergleich zu Propafenon. Dies ergibt sich aus einem Vergleich der LD₅₀-Werte bei Ratten und Mäusen, die in Tabelle II zusammengefaßt sind.

CCCNCC(O)COc1ccccc1C(=O)CCc1ccccc1 (stereo not shown) [A, Propafenon, reference compound]
LD50: 17 mg/kg
